From US20060281736A1, “Product comprising at least one phosphatase cdc25 inhibitor combined with at least one other anticancer agent” (priority 2003, published 2006)
Some of these results come from one statement about several compounds together.

Experiments:
[1] = tested on: Mia-PaCa2 (human pancreas cancer cells); assay: Antiproliferative activity on Mia-Paca2 cells (WST1); assay type: cell-based; conditions: 96 hours treatment; read-out: IC50 on the cell proliferation of Mia-Paca2 lines
Description: ii) Characterization of the Antiproliferative Activity:
By way of example, the effect of a treatment on two human cell lines Mia-Paca2 and DU145 with the compounds of the examples described previously will be studied. The cell lines DU145 (human prostate cancer cells) and Mia-PaCa2 (human pancreas cancer cells) were acquired from the American Tissue Culture Collection (Rockville, Md., USA). The cells placed in 80 μl of Dulbecco's Modified Eagle's medium (Gibco-Brl, Cergy-Pontoise, France) completed with 10% foetal calf serum inactivated by heating (Gibco-Brl, Cergy-Pontoise, France), 50,000 units/l of penicillin and 50 mg/l of streptomycin (Gibco-Brl, Cergy-Pontoise, France), and 2 mM of glutamine (Gibco-Brl, Cergy-Pontoise, France) were seeded on a 96-well plate on day 0. The cells were treated on day 1 for 96 hours with increasing concentrations of each of the compounds to be tested up to 10 μM. At the end of this period, quantification of cell proliferation is evaluated by a colorimetric test based on the cleavage of the tetrazolium salt WST1 by the mitochondrial dehydrogenases in viable cells leading to the formation of formazan (Boehringer Mannheim, Meylan, France). These tests are carried out in duplicate with 8 determinations per concentration tested. For each compound to be tested, the values included in the linear part of the sigmoid were retained for a linear regression analysis and used to estimate the inhibitory concentration IC50. The products are solubilized in dimethylsulphoxide (DMSO) at 10^−2 M and finally used in culture with 0.1% DMSO.

MBP-Cdc25C protein = target: T1, MBP-Cdc25C protein (Homo sapiens, UniProt P30307); assay: Phosphatase activity of the purified Cdc25C recombinant enzyme (OMFP dephosphorylation); assay type: biochemical; conditions: OMFP 500 μM, 4 hours at 30° C.; read-out: IC50 on the phosphatase activity of the purified Cdc25-C recombinant enzyme
T1 construct: made in house
T1 sequence (P30307 1-473): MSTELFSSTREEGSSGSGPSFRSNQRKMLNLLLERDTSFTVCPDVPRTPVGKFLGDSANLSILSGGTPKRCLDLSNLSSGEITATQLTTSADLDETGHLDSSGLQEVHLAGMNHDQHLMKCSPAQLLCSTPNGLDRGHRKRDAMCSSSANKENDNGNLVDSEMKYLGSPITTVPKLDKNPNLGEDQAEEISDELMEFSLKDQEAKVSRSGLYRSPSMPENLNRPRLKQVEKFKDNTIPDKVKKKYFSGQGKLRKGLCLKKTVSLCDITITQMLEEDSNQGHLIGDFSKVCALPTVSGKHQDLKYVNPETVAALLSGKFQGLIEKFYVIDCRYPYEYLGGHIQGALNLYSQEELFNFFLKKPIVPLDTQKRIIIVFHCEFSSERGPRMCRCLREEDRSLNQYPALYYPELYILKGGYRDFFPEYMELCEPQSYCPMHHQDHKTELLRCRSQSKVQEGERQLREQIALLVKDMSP

Substance	IC50 [1]	IC50 (MBP-Cdc25C protein)
Mixture of 2-(2-chlorophenyl)-5-{[2-(dimethylamino)ethyl]amino}-1,3-benzoxazole-4,7-dione and 2-(2-chlorophenyl)-6-{[2-(dimethylamino)ethyl]amino}-1,3-benzoxazole-4,7-dione [Example 71]	≤ 10 µM	≤ 10 µM
Mixture of 2-(2,5-dichlorothien-3-yl)-5-[(2-pyrrolidin-1-ylethyl)amino]-1,3-benzothiazole-4,7-dione and 2-(2,5-dichlorothien-3-yl)-6-[(2-pyrrolidin-1-ylethyl)amino]-1,3-benzothiazole-4,7-dione [Example 105]	≤ 10 µM	–
Mixture of 5-{[6-(dimethylamino)hexyl]amino}-2-phenyl-1,3-benzoxazole-4,7-dione and 6-{[6-(dimethylamino)hexyl]amino}-2-phenyl-1,3-beenzoxazole-4,7-dione [Example 58]	≤ 10 µM	≤ 10 µM
Mixture of 2-[4-(diethylamino)phenyl]-5-[(2-pyrrolidin-1-ylethyl)amino]-1,3-benzoxazole-4,7-dione and 2-[4-(diethylamino)phenyl]-6-[(2-pyrrolidin-1-ylethyl)amino]-1,3-benzoxazole-4,7-dione [Example 62]	≤ 10 µM	≤ 10 µM
Mixture of 5-{[2-(dimethylamino)ethyl]amino}-2-(2-fluorophenyl)-1,3-benzothiazole-4,7-dione and 6-{[2-(dimethylamino)ethyl]amino}-2-(2-fluorophenyl)-1,3-benzothiazole-4,7-dione [Example 108]	≤ 10 µM	≤ 10 µM
2-cyclopropyl-5-{[2-(dimethylamino)ethyl]amino}-1,3-benzoxazole-4,7-dione or 2-cyclopropyl-6-{[2-(dimethylamino)ethyl]amino}-1,3-benzoxazole-4,7-dione [Example 56]	≤ 10 µM	≤ 10 µM
Mixture of 2-(2-chlorophenyl)-5-[(2-pyrrolidin-1-ylethyl)amino]-1,3-benzoxazole-4,7-dione and 2-(2-chlorophenyl)-6-1(2-pyrrolidin-1-ylethyl)amino]-1,3-benzoxazole-4,7-dione [Example 72]	≤ 10 µM	≤ 10 µM
Mixture of 5-[(1-benzylpyrrolidin-3-yl)amino]-2-(4-fluorophenyl)-1,3-benzoxazole-4,7-dione and 6-[(1-benzylpyrrolidin-3-yl)amino]-2-(4-fluorophenyl)-1,3-benzoxazole-4,7-dione [Example 78]	≤ 10 µM	≤ 10 µM
Mixture of 5-{[6-(dimethylamino)hexyl]amino}-2-ethyl-1,3-benzoxazole-4,7-dione and 6-{[6-(dimethylamino)hexyl]amino}-2-ethyl-1,3-benzoxazole-4,7-dione [Example 48]	≤ 10 µM	≤ 10 µM
Mixture of 2-(4-chlorophenyl)-5-{[4-(dimethylamino)butyl]amino}-1,3-benzoxazole-4,7-dione and 2-(4-chlorophenyl)-6-{[4-(dimethylamino)butyl]amino}-1,3-benzoxazole-4,7-dione [Example 65]	≤ 10 µM	≤ 10 µM
Mixture of 2-(2-bromophenyl)-5-[(2-pyrrolidin-1-ylethyl)amino]-1,3-benzoxazole-4,7-dione and 2-(2-bromophenyl)-6-[(2-pyrrolidin-1-ylethyl)amino]-1,3-benzoxazole-4,7-dione [Example 69]	≤ 10 µM	≤ 10 µM
Mixture of 5-azocan-1-yl-2-ethyl-1,3-benzoxazole-4,7-dione and 6-azocan-1-yl-2-ethyl-1,3-benzoxazole-4,7-dione [Example 51]	≤ 10 µM	≤ 10 µM
5-{[5-(dimethylamino)pentyl]amino}-2-ethyl-1,3-benzoxazole-4,7-dione or 6-{[5-(dimethylamino)pentyl]amino}-2-ethyl-1,3-benzoxazole-4,7-dione [Example 47]	≤ 10 µM	≤ 10 µM
Mixture of 2-(2,6-difluorophenyl)-5-{[2-(dimethylamino)ethyl]amino}-1,3-benzothiazole-4,7-dione and 2-(2,6-difluorophenyl)-6-{[2-(dimethylamino)ethyl]amino}-1,3-benzothiazole-4,7-dione [Example 113]	≤ 10 µM	≤ 10 µM
Mixture of 2-[2-chloro-6-fluorophenyl]-5-[(2-pyrrolidin-1-ylethyl)amino]-1,3-benzoxazole-4,7-dione and 2-[2-chloro-6-fluorophenyl]-6-[(2-pyrrolidin-1-ylethyl)amino]-1,3-benzoxazole-4,7-dione [Example 98]	≤ 10 µM	≤ 10 µM
Mixture of 5-{[2-(dimethylamino)ethyl]amino}-2-(3,4,5-trifluorophenyl)-1,3-benzoxazole-4,7-dione and 6-{[2-(dimethylamino)ethyl]amino}-2-(3,4,5-trifluorophenyl)-1,3-benzoxazole-4,7-dione [Example 88]	≤ 10 µM	≤ 10 µM
Mixture of 5-{[3-(dimethylamino)propyl]amino}-2-[2-fluoro-6-(trifluoromethyl)phenyl]-1,3-benzoxazole-4,7-dione and 6-{[3-(dimethylamino)propyl]amino}-2-[2-fluoro-6-(trifluoromethyl)phenyl]-1,3-benzoxazole-4,7-dione [Example 93]	≤ 10 µM	≤ 10 µM
Mixture of 2-[2-chloro-6-fluorophenyl]-5-{3-(dimethylamino)propyl]amino}-1,3-benzoxazole-4,7-dione and 2-[2-chloro-6-fluorophenyl]-6-[3-(dimethylamino)propyl]amino}-1,3-benzoxazole-4,7-dione [Example 97]	≤ 10 µM	≤ 10 µM
Mixture of 2-(3,5-difluorophenyl)-5-[(2-pyrrolidin-1-ylethyl)amino]-1,3-benzoxazole-4,7-dione and 2-(3,5-difluorophenyl)-6-[(2-pyrrolidin-1-ylethyl)amino]-1,3-benzoxazole-4,7-dione [Example 80]	≤ 10 µM	≤ 10 µM
Mixture of 2-(2-furyl)-5-[(2-pyrrolidin-1-ylethyl)amino]-1,3-benzothiazole-4,7-dione and 2-(2-furyl)-6-[(2-pyrrolidin-1-ylethyl)amino]-1,3-benzothiazole-4,7-dione [Example 106]	≤ 10 µM	–
5-anilino-6-chloro-2-ethyl-1,3-benzoxazole-4,7-dione or 6-anilino-5-chloro-2-ethyl-1,3-benzoxazole-4,7-dione [Example 16]	≤ 10 µM	≤ 10 µM
tert-butyl 2-[(2-ethyl-4,7-dioxo-4,7-dihydro-1,3-benzoxazol-5-yl)(methyl)amino]ethylcarbamate or tert-butyl 2-[(2-ethyl-4,7-dioxo-4,7-dihydro-1,3-benzoxazol-6-yl)(methyl)aminolethylcarbamate [Example 41]	≤ 10 µM	≤ 10 µM
5-[(3-aminopropyl)amino]-2-methyl-1,3-benzothiazole-4,7-dione [Example 33]	≤ 10 µM	≤ 10 µM
Mixture of 2-(2-fluorophenyl)-5-[(2-pyrrolidin-1-ylethyl)amino]-1,3-benzothiazole-4,7-dione and 2-(2-fluorophenyl)-6-[(2-pyrrolidin-1-ylethyl)amino]-1,3-benzothiazole-4,7-dione [Example 109]	≤ 10 µM	≤ 10 µM
5-{[3-(dimethylamino)propyl]amino}-2-ethyl-1,3-benzoxazole-4,7-dione or 6-{[3-(dimethylamino)propyl]amino}-2-ethyl-1,3-benzoxazole-4,7-dione [Example 43]	≤ 10 µM	≤ 10 µM
Mixture of 5-[(2-pyrrolidin-1-ylethyl)amino]-2-(3,4,5-trifluorophenyl)-1,3-benzoxazole-4,7-dione and 6-[(2-pyrrolidin-1-ylethyl)amino]-2-(3,4,5-trifuorophenyl)-1,3-benzoxazole-4,7-dione [Example 87]	≤ 10 µM	≤ 10 µM
